Test results reported in patent US20230212305A1, “ANTI-ABCG2 ANTIBODIES AND USES THEREOF” (Kenjockety Biotechnology, Inc., priority 2020, published 2023).
These are yes or no findings as the source states them, for the method shown. Some entries that bind do so weakly or less than the wild type.

The chains behind the UniProt entries cited, without tags or fusion partners.
UniProt P08183: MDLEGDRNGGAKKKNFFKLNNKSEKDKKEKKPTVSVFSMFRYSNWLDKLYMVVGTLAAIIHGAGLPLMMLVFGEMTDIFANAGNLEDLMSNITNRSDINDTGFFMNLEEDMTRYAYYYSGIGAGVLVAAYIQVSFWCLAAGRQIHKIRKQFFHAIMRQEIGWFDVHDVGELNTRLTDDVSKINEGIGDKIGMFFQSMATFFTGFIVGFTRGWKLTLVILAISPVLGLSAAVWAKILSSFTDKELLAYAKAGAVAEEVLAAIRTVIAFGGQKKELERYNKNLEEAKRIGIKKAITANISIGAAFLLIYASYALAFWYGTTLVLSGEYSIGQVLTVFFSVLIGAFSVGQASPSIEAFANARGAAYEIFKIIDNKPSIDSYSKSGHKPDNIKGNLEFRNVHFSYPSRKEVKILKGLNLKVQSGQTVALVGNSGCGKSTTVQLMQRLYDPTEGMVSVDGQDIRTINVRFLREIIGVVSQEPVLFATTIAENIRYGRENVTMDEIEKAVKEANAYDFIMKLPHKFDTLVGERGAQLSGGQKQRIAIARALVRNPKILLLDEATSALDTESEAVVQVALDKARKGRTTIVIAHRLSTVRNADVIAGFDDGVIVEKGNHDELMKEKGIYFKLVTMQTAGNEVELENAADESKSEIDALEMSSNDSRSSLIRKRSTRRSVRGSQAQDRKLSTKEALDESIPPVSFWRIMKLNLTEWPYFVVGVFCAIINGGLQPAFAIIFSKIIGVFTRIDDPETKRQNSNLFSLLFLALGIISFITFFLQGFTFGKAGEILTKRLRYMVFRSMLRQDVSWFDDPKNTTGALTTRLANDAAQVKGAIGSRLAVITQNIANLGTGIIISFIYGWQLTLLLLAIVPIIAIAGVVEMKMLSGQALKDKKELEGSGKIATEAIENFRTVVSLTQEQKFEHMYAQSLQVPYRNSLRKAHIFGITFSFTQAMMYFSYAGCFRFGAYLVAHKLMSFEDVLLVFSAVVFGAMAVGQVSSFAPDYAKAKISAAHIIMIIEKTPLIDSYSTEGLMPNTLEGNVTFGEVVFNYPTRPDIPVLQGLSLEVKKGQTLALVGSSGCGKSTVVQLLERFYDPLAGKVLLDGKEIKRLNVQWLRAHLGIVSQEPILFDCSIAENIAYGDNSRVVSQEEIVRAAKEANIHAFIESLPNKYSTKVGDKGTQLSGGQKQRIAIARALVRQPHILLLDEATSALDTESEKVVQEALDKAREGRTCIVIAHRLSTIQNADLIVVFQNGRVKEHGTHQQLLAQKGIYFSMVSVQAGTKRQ

T1: cynomolgus ABCG2 (Macaca fascicularis) (Macaca fascicularis (cynomolgus))
T1 sequence: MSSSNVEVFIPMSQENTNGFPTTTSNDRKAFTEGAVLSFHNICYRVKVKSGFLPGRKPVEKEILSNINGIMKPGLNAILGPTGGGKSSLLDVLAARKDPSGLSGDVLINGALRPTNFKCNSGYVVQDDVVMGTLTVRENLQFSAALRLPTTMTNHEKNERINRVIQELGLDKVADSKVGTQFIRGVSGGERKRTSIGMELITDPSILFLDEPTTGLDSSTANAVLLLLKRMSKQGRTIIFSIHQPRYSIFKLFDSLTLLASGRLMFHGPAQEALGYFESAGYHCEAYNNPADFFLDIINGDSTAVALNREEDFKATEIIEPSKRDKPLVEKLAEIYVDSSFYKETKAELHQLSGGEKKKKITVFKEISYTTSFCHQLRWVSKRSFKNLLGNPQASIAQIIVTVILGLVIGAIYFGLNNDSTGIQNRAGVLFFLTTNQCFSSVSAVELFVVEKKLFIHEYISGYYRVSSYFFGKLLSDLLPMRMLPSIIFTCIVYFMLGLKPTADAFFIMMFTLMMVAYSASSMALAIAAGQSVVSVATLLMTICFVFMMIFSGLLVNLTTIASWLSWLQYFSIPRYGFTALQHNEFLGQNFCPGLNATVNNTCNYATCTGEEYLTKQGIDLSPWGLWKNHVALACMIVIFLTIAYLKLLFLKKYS

T2: human ABCG2 (human) (UniProt Q9UNQ0)
T2 sequence: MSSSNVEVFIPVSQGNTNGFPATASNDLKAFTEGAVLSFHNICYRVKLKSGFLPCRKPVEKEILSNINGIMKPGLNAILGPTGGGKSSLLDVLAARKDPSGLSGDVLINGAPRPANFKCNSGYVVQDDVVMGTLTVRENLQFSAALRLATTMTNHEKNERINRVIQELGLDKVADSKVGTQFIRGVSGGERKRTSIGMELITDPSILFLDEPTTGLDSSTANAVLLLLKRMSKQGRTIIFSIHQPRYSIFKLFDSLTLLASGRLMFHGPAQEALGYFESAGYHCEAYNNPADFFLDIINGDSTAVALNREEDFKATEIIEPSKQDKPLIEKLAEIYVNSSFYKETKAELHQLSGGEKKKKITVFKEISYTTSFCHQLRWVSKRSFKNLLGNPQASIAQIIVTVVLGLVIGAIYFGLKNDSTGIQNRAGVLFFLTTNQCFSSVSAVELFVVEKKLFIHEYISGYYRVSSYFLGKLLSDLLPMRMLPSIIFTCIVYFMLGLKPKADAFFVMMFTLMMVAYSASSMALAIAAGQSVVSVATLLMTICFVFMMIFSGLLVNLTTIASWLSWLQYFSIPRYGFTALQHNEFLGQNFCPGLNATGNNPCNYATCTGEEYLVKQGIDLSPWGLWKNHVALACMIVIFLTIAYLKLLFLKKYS


Experiments:
[1] = target: T1, cynomolgus ABCG2 (Macaca fascicularis) (Macaca fascicularis (cynomolgus)); assay: flow cytometry on cells expressing cynomolgus ABCG2
human ABCG2 (human) [2] = target: T2, human ABCG2 (human); assay: flow cytometry (FACS) on 293T_ABCG2_OX cells
human ABCG2 (human) [3] = target: T2, human ABCG2 (human); assay: flow cytometry, 293T cells overexpressing human ABCG2
[4] = target: T1, cynomolgus ABCG2 (Macaca fascicularis) (Macaca fascicularis (cynomolgus)); assay: flow cytometry, 293T cells overexpressing cynomolgus ABCG2
[5] = target: T1, cynomolgus ABCG2 (Macaca fascicularis) (Macaca fascicularis (cynomolgus)); assay: FACS, 3T3 cells stably transfected with cABCG2
human ABCG2 (human) [6] = target: T2, human ABCG2 (human); assay: FACS on 293T cells overexpressing human ABCG2
[7] = target: human MDR1 (P glycoprotein, ABCB1) (human) (UniProt P08183); assay: FACS on 293T cells overexpressing human ABCB1

| binding [1] | binding (human ABCG2 (human) [2]) | binding (human ABCG2 (human) [3]) | binding [4] | Binder | also measured |
| --- | --- | --- | --- | --- | --- |
| binds | binds | binds | binds | G2.631 rat (antibody, human IgG1, V domains shown) VH: EVKLLESGGGLVQSGRSLKLSCAASGFIFSRFYMAWVRQAPRKGLEWVAYISNGAGSTYYRESVKGRFIISRDNAKSTLYLQMDSLRSEDTATYYCTTVAAPWNYVMDGWGQGASVTVSS VL: NIQITQSPSLLSASVGDRVTLSCKGSQNINNYLAWYQQKLGEAPKLLIYKTNSLHTGIPSRFSGSGSGTDYTLTISSLHSEDLATYYCYQYNNGYTFGAGTKLELK |  |
| binds |  |  |  | G2.333 rat (antibody, human IgG1, V domains shown) VH: EIQLQESGPGLVKPSQSLSLTCSVTGYTITSGYDWTWLRKFPGNKMEWMGYISYSGFTNYNPSLRSRISISRDTSKNQFFLQLNSVTTEDTATYYCARTRGYNPFPYWGQGTLVTVSS VL: DIQMTQSPSLLSASVGDRVSLSCKAGRNVNNYLAWYQQKLGKPPKLLIYNSNSLQTGIPSRFSGSGSGTDFTLTISSLQPEDVATYFCQQYNSWTTFGSGTKLEIK |  |
|  |  | binds | binds | G2.757 rat (antibody, human IgG1, V domains shown) VH: QVTLKESGPGILRPSHTLSLTCSFSGFSLTTYGICVSWIRQPSGKGLEWLANICWEDSKAYNPSLKNRLTISKDTSNNQVFLRIPSVDTADSAIYYCARVFNNYPFPYWGQGTLVTVSS VL: TQSPPSLSASLGDKVTITCQASQNINKYVAWYQQKPGKAPRLLIRYTSTLESGTPSRFSGSGSWRDYSFSISNVESEDIADYYCLQYVNLWTFGGGTKLELK |  |
|  | binds |  |  | G2.642 rat (antibody, human IgG1, V domains shown) VH: QIQLVQSGAELVKPGASVKLSCKTSGFTFSSNYISWLRQKPRQSLEWIAWIYSGTGGTYYNQKFTGKAQLTIDTSSNTAYMQLSSLTSEDSAIYYCARHVGLRYWYFDVWGAGTSVTVSS VL: DIVLTQSPASLTVSLGQRATISCRASESVDSNGNSFMHWYQQKPGQSPKVLIYRASNLESGVPARFSGSGSRTDFTLTINPVEADDVATYYCQQSNEDPWTFGGGTKLEIKR |  |
| binds |  |  |  | anti-ABCG2 antibody 5D3 (antibody, V domains shown) VH: QVQLQESGPGLVKPSQSLSLTCTVTGFSITSDYAWNWIRQFPGKKLEWMGYINFDGGTTYNPSLRGRISITRDTSKNQFFLQLRSVTPEDTATYYCATFYGAKGTLDYWGQGTSVTVSS VL: DIVLTQSPSSFSVSLGDRVTISCKASGYILNRLAWYQQKPGNAPRLLISGATSLETGFPSRFSGTGSGKDYTLSISSLQTEDVGTYYCQQYWSTPWTFGGGTKLEIK | binding [5]: binds |
|  |  |  |  | 15D3 IgG1 DD HC/G2.255KK HC/MRK16 LC (bispecific antibody, not shown: a dimerising Fc or GST) heavy 1: EVKVVESGGVLVRPGGSLKLSCAASGFTFSRYTMSWVRQTPEKRLEWVATISSGGGNTYYPDSVKGRFTVSRDNAMSSLYLQMSSLRSEDTALYYCARYGAGDAWFAYWGQGTLVTVSS heavy 2: EVMLVESGGALVKPGGSLKLSCAASGFTFSNNAMSWVRQTPETRLEWVATITGGGSYTYYPDSVKGRFTISRDNARNTLYLQMSSLRSEDTATYYCASPDGNYEGVLAYWGQGTLVTVSA light: DVLMTQTPVSLSVSLGDQASISCRSSQSIVHSTGNTYLEWYLQKPGQSPKLLIYKISNRFSGVPDRFSGSGSGTDFTLKISRVEAEDLGVYYCFQASHFPRTFGGGTKLEIK | binding (human ABCG2 (human) [6]): binds; binding [7]: binds |
